# Test system: NCI-59 human cancer cell lines
# Test: NCI-60 one-dose SRB screening, full panel and subpanels
# Type: cell-based
# Conditions: 10 µM; for growth percentage, Delta: Delta of the one-dose mean graph; for growth percentage, Range: Range of the one-dose mean graph
# Protocol: The structures of the synthesized compounds 6a–h, 12a–c, 11, 13a–c, and 14a–c were submitted to the National Cancer Institute’s Developmental Therapeutics Program (NCI-DTP), and all of them were selected for preliminary in vitro anticancer activity screening against NCI-59 human cancer cell lines at a concentration of 10 µM, using the sulforhodamine B (SRB) assay to determine the growth percentage and cell viability.
# The in vitro NCI-60 cell line screening assay was conducted at the National Cancer Institute (NCI), Bethesda, USA against 59 cancer cell lines representing 9 types of cancers, as reported earlier. Briefly, the human cancer cell lines were grown in RPMI 1640 medium containing 5% fetal bovine serum and 2 mM L-glutamine and inoculated into 96-well microtiter plates in 100 μL (5000 to 40,000 cells/well). Then, the plates were incubated at 37 °C, 5% CO2, 95% air, and 100% relative humidity for 24 h. After that, two plates of each cell line were fixed in situ with TCA, to represent cell population at time zero (Tz). The tested compounds were dissolved in DMSO at 400-fold and added so that the final concentration became 10 μM. The plates were then incubated for an additional 48 h followed by the addition of cold TCA to terminate the assay in case of adherent cells. Then, the cells were fixed in situ by cold 50% (w/v) TCA (50 μL; final concentration, 10% TCA) and incubated for 1 h at 4 °C. After discarding the supernatant, the plates were washed 5 times with tap water and air dried. Sulforhodamine B (SRB) solution (100 μL) at 0.4% (w/v) in 1% HOAc was added to each well, and plates were incubated for 10 min. at rt. Then, washing with 1% acetic acid was conducted 5 times to remove the unbound dye followed by air drying. After that, 10 mM trizma base was added to solubilize the bound stain, and the absorbance was read on an automated plate reader at a wavelength of 515 nm. On the other hand, the methodology for suspension cells was the same except that 50 μL of 80% TCA (final concentration, 16% TCA) was gently added to terminate the assay by fixing settled cells at the bottom of the wells. Percentage growth inhibition (GI%) was calculated as follows:
# Growth percentage=Ti (test growth in the presence of compound at 10 µM )−Tz (time zero)/C (control growth)−Tz (time zero)×100 for Ti ≥ Tz;
# Growth percentage=Ti (test growth in the presence of compound at 10 µM )−Tz (time zero)/Tz (time zero)×100 for Ti < Tz.
# where values of 100, 40, 0, −40, and −100 mean no GI, 60% GI, no net G, 40% lethality, and all cells are dead, respectively.
# Data are expressed as a one-dose mean graph of growth percentages including the mean, delta, and range.
SMILES,"growth percentage, Delta [%]","growth percentage, Range [%]"
"[O-][n+]1onc(-c2ccccc2)c1COc1ccc(Nc2ncnc3c2cnn3-c2ccccc2)cc1 [6a, 4-phenyl-3-((4-((1-phenyl-1H-pyrazolo[3,4-d]pyrimidin-4-yl)amino)phenoxy)methyl)-1,2,5-oxadiazole 2-oxide]",45.85,75.94
"Cc1nc(Nc2ccc(OCc3c(-c4ccccc4)no[n+]3[O-])cc2)c2cnn(-c3ccccc3)c2n1 [6b, 3-((4-((6-methyl-1-phenyl-1H-pyrazolo[3,4-d]pyrimidin-4-yl)amino)phenoxy)methyl)-4-phenyl-1,2,5-oxadiazole 2-oxide]",14.77,34.68
"Cc1nn(-c2ccccc2)c2ncnc(Nc3ccc(OCc4c(-c5ccccc5)no[n+]4[O-])cc3)c12 [6c, 3-((4-((3-methyl-1-phenyl-1H-pyrazolo[3,4-d]pyrimidin-4-yl)amino)phenoxy)methyl)-4-phenyl-1,2,5-oxadiazole 2-oxide]",24.23,46.84
"Cc1nc(Nc2ccc(OCc3c(-c4ccccc4)no[n+]3[O-])cc2)c2c(C)nn(-c3ccccc3)c2n1 [6d, 3-((4-((3,6-dimethyl-1-phenyl-1H-pyrazolo[3,4-d]pyrimidin-4-yl)amino)phenoxy)methyl)-4-phenyl-1,2,5-oxadiazole 2-oxide]",16.39,37.16
"[O-][n+]1onc(-c2ccccc2)c1COc1ccc(Nc2ncnc3c2cnn3-c2ccc(Br)cc2)cc1 [6e, 3-((4-((1-(4-bromophenyl)-1H-pyrazolo[3,4-d]pyrimidin-4-yl)amino)phenoxy)methyl)-4-phenyl-1,2,5-oxadiazole 2-oxide]",18.93,36.68
"Cc1nc(Nc2ccc(OCc3c(-c4ccccc4)no[n+]3[O-])cc2)c2cnn(-c3ccc(Br)cc3)c2n1 [6f, 3-((4-((1-(4-bromophenyl)-6-methyl-1H-pyrazolo[3,4-d]pyrimidin-4-yl)amino)phenoxy)methyl)-4-phenyl-1,2,5-oxadiazole 2-oxide]",17.85,39.52
"Cc1nn(-c2ccc(Br)cc2)c2ncnc(Nc3ccc(OCc4c(-c5ccccc5)no[n+]4[O-])cc3)c12 [6g, 3-((4-((1-(4-bromophenyl)-3-methyl-1H-pyrazolo[3,4-d]pyrimidin-4-yl)amino)phenoxy)methyl)-4-phenyl-1,2,5-oxadiazole 2-oxide]",18.12,50.71
"Cc1nc(Nc2ccc(OCc3c(-c4ccccc4)no[n+]3[O-])cc2)c2c(C)nn(-c3ccc(Br)cc3)c2n1 [6h, 3-((4-((1-(4-bromophenyl)-3,6-dimethyl-1H-pyrazolo[3,4-d]pyrimidin-4-yl)amino)phenoxy)methyl)-4-phenyl-1,2,5-oxadiazole 2-oxide]",28.04,68.15
"Cc1nn(-c2ccccc2)c2nc(C(F)(F)F)nc(Nc3ccc(NCc4c(-c5ccccc5)no[n+]4[O-])cc3)c12 [12a, 3-(((4-((3-methyl-1-phenyl-6-(trifluoromethyl)-1H-pyrazolo[3,4-d]pyrimidin-4-yl)amino)phenyl)amino)methyl)-4-phenyl-1,2,5-oxadiazole 2-oxide]",37,66.14
"[O-][n+]1onc(-c2ccccc2)c1CNc1ccc(Nc2nc(C(F)(F)F)nc3c2cnn3-c2ccc(Br)cc2)cc1 [12b, 3-(((4-((1-(4-bromophenyl)-6-(trifluoromethyl)-1H-pyrazolo[3,4-d]pyrimidin-4-yl)amino)phenyl)amino)methyl)-4-phenyl-1,2,5-oxadiazole 2-oxide]",44.06,79.69
"Cc1nn(-c2ccc(Br)cc2)c2nc(C(F)(F)F)nc(Nc3ccc(NCc4c(-c5ccccc5)no[n+]4[O-])cc3)c12 [12c, 3-(((4-((1-(4-bromophenyl)-3-methyl-6-(trifluoromethyl)-1H-pyrazolo[3,4-d]pyrimidin-4-yl)amino)phenyl)amino)methyl)-4-phenyl-1,2,5-oxadiazole 2-oxide]",42.9,84.8
O=c1[nH]c(CCl)nc2c1cnn2-c1ccccc1 [13a],183.97,244.17
Cc1nn(-c2ccccc2)c2nc(CCl)[nH]c(=O)c12 [13b],169.18,208.67
Cc1nn(-c2ccc(Br)cc2)c2nc(CCl)[nH]c(=O)c12 [13c],178.45,209.18
"O=c1[nH]c(CNc2ccc(NCc3c(-c4ccccc4)no[n+]3[O-])cc2)nc2c1cnn2-c1ccccc1 [14a, 3-(((4-(((4-oxo-1-phenyl-4,5-dihydro-1H-pyrazolo[3,4-d]pyrimidin-6-yl)methyl)amino)phenyl)amino)methyl)-4-phenyl-1,2,5-oxadiazole 2-oxide]",38.87,75.47
"Cc1nn(-c2ccccc2)c2nc(CNc3ccc(NCc4c(-c5ccccc5)no[n+]4[O-])cc3)[nH]c(=O)c12 [14b, 3-(((4-(((3-methyl-4-oxo-1-phenyl-4,5-dihydro-1H-pyrazolo[3,4-d]pyrimidin-6-yl)methyl)amino)phenyl)amino)methyl)-4-phenyl-1,2,5-oxadiazole 2-oxide]",30.23,75.25
"Cc1nn(-c2ccc(Br)cc2)c2nc(CNc3ccc(NCc4c(-c5ccccc5)no[n+]4[O-])cc3)[nH]c(=O)c12 [14c, 3-(((4-(((1-(4-bromophenyl)-3-methyl-4-oxo-4,5-dihydro-1H-pyrazolo[3,4-d]pyrimidin-6-yl)methyl)amino)phenyl)amino)methyl)-4-phenyl-1,2,5-oxadiazole 2-oxide]",19.99,49.14
"Nc1ccc(NCc2c(-c3ccccc3)no[n+]2[O-])cc1 [compound 11, 3-(((4-aminophenyl)amino)methyl)-4-phenyl-1,2,5-oxadiazole 2-oxide]",23.16,72.47
